Experimental data: PubChem BioAssay AID1508597 (Cure First, 2020)
The deposit covers about 2,100 reagents; below is a part drawn at random. 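Calls flag viability under 80% in either arm, not effects specific to rucaparib; the reference for percent is not stated.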 A number with no mark means an inactive call. No sequences are given here. Not stated in the record: the 100% reference.

Aim: 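Survival screen with siRNA in ovarian cancer cells derived from patients, with or without rucaparib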 (primary screen)
System: human ovarian carcinoma lines grown from tumours: OCI-P5x (papillary serous) and OCI-C5x (clear cell)
Knock-down reagent: siRNA pool against human genes, 1.25 pmol siRNA per well
Duration: 72 h or 96 h, depending on the cell culture
Conditions: rucaparib 20 µM (about IC30) or vehicle, present until read-out
Read-out: 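ATP luminescence measured at 72 or 96 h according to the culture, then normalised and expressed as percent viability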
Reading the numbers: viability, normalised: higher = more viable cells remaining
Hit rule: 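Active when normalised viability falls below 80 percent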
Calls: active = viability under 80%; inactive = viability 80% or more

target gene	rucaparib or vehicle	cell line	technical replicate	viability, normalised (%)
JADE2 (jade family PHD finger 2)	Rucaparib	OCI-C5x (clear cell)	1	25.6 (active)
JADE2 (jade family PHD finger 2)	Rucaparib	OCI-C5x (clear cell)	2	21.7 (active)
JADE2 (jade family PHD finger 2)	Rucaparib	OCI-C5x (clear cell)	3	24 (active)
JADE2 (jade family PHD finger 2)	Rucaparib	OCI-P5x (serous)	1	29.4 (active)
JADE2 (jade family PHD finger 2)	Rucaparib	OCI-P5x (serous)	2	34.5 (active)
JADE2 (jade family PHD finger 2)	Rucaparib	OCI-P5x (serous)	3	30 (active)
JADE2 (jade family PHD finger 2)	Vehicle	OCI-C5x (clear cell)	1	21.1 (active)
JADE2 (jade family PHD finger 2)	Vehicle	OCI-C5x (clear cell)	2	17.2 (active)
JADE2 (jade family PHD finger 2)	Vehicle	OCI-C5x (clear cell)	3	27 (active)
JADE2 (jade family PHD finger 2)	Vehicle	OCI-P5x (serous)	1	38.1 (active)
JADE2 (jade family PHD finger 2)	Vehicle	OCI-P5x (serous)	2	40.7 (active)
JADE2 (jade family PHD finger 2)	Vehicle	OCI-P5x (serous)	3	67.9 (active)
CAMKV (CaM kinase like vesicle associated)	Rucaparib	OCI-C5x (clear cell)	1	62.5 (active)
CAMKV (CaM kinase like vesicle associated)	Rucaparib	OCI-C5x (clear cell)	2	50.9 (active)
CAMKV (CaM kinase like vesicle associated)	Rucaparib	OCI-C5x (clear cell)	3	53.8 (active)
CAMKV (CaM kinase like vesicle associated)	Rucaparib	OCI-P5x (serous)	1	57.4 (active)
CAMKV (CaM kinase like vesicle associated)	Rucaparib	OCI-P5x (serous)	2	63.9 (active)
CAMKV (CaM kinase like vesicle associated)	Rucaparib	OCI-P5x (serous)	3	67.9 (active)
CAMKV (CaM kinase like vesicle associated)	Vehicle	OCI-C5x (clear cell)	1	53.1 (active)
CAMKV (CaM kinase like vesicle associated)	Vehicle	OCI-C5x (clear cell)	2	62.9 (active)
CAMKV (CaM kinase like vesicle associated)	Vehicle	OCI-C5x (clear cell)	3	55.8 (active)
CAMKV (CaM kinase like vesicle associated)	Vehicle	OCI-P5x (serous)	1	70.2 (active)
CAMKV (CaM kinase like vesicle associated)	Vehicle	OCI-P5x (serous)	2	70.5 (active)
CAMKV (CaM kinase like vesicle associated)	Vehicle	OCI-P5x (serous)	3	26 (active)

2 entries from above, ordered by “viability, normalised (%)”, low to high.
target gene	rucaparib or vehicle	cell line	technical replicate	viability, normalised (%)
CAMKV (CaM kinase like vesicle associated)	Rucaparib	OCI-C5x (clear cell)	2	50.9 (active)
CAMKV (CaM kinase like vesicle associated)	Rucaparib	OCI-C5x (clear cell)	1	62.5 (active)

Continued.
target gene	rucaparib or vehicle	cell line	technical replicate	viability, normalised (%)
ITPKC (inositol-trisphosphate 3-kinase C)	Rucaparib	OCI-C5x (clear cell)	1	47.3 (active)
ITPKC (inositol-trisphosphate 3-kinase C)	Rucaparib	OCI-C5x (clear cell)	2	56 (active)
ITPKC (inositol-trisphosphate 3-kinase C)	Rucaparib	OCI-C5x (clear cell)	3	45 (active)
ITPKC (inositol-trisphosphate 3-kinase C)	Rucaparib	OCI-P5x (serous)	1	73.6 (active)
ITPKC (inositol-trisphosphate 3-kinase C)	Rucaparib	OCI-P5x (serous)	2	84.7
ITPKC (inositol-trisphosphate 3-kinase C)	Rucaparib	OCI-P5x (serous)	3	86.7
ITPKC (inositol-trisphosphate 3-kinase C)	Vehicle	OCI-C5x (clear cell)	1	56.2 (active)
ITPKC (inositol-trisphosphate 3-kinase C)	Vehicle	OCI-C5x (clear cell)	2	57 (active)
ITPKC (inositol-trisphosphate 3-kinase C)	Vehicle	OCI-C5x (clear cell)	3	55.2 (active)
ITPKC (inositol-trisphosphate 3-kinase C)	Vehicle	OCI-P5x (serous)	1	67.1 (active)
ITPKC (inositol-trisphosphate 3-kinase C)	Vehicle	OCI-P5x (serous)	2	63.9 (active)
ITPKC (inositol-trisphosphate 3-kinase C)	Vehicle	OCI-P5x (serous)	3	72.7 (active)
S100A4 (S100 calcium binding protein A4)	Rucaparib	OCI-C5x (clear cell)	1	48.7 (active)
S100A4 (S100 calcium binding protein A4)	Rucaparib	OCI-C5x (clear cell)	2	45.2 (active)
S100A4 (S100 calcium binding protein A4)	Rucaparib	OCI-C5x (clear cell)	3	41.9 (active)
S100A4 (S100 calcium binding protein A4)	Rucaparib	OCI-P5x (serous)	1	37.8 (active)
S100A4 (S100 calcium binding protein A4)	Rucaparib	OCI-P5x (serous)	2	37.1 (active)
S100A4 (S100 calcium binding protein A4)	Rucaparib	OCI-P5x (serous)	3	31.3 (active)
S100A4 (S100 calcium binding protein A4)	Vehicle	OCI-C5x (clear cell)	1	34.4 (active)
S100A4 (S100 calcium binding protein A4)	Vehicle	OCI-C5x (clear cell)	2	33.9 (active)
S100A4 (S100 calcium binding protein A4)	Vehicle	OCI-C5x (clear cell)	3	47 (active)
S100A4 (S100 calcium binding protein A4)	Vehicle	OCI-P5x (serous)	1	48.3 (active)
S100A4 (S100 calcium binding protein A4)	Vehicle	OCI-P5x (serous)	2	51.9 (active)
S100A4 (S100 calcium binding protein A4)	Vehicle	OCI-P5x (serous)	3	58.4 (active)
